# According to PubChem BioAssay AID1259354 (Paczesny and Yang Labs, IUPUI and University of Michigan, 2018):
# Chains of the proteins cited; added tags and fusions are not shown. Lines headed by an entry give the natural chain unless they say otherwise; changes in a name come on top.
# UniProt Q01638: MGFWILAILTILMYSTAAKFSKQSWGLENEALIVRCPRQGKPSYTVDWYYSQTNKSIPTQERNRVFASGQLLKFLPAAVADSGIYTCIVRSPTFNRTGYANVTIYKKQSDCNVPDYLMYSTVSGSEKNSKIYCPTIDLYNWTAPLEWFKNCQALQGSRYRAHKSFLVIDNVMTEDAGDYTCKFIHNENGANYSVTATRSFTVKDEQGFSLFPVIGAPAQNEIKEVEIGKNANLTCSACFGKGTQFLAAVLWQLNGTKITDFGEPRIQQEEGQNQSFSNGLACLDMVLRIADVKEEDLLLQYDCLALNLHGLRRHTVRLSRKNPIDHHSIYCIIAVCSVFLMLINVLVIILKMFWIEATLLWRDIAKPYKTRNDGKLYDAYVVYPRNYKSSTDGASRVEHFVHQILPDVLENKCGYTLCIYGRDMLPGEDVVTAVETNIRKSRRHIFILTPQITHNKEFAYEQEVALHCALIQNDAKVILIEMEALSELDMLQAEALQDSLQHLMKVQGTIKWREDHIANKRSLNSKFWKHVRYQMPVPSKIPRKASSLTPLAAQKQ
# Values joined by “and” are separate entries in the source; they are usually repeats but may differ in a detail not shown here. Equal entries are not always repeated. Hit rate of the full screen: of about 78,000 compounds, about 1,800 (2.3%) were called active. The inconclusive results got no clear call from the source; some entries with a clear call stand among them for comparison. Cut-off read from the data, not from the text of the source: active = inhibition above about 30%; inconclusive = mostly about 10% to 28%; inactive = weaker than that.
# Target: Interleukin-1 receptor-like 1 (Homo sapiens) (UniProt Q01638)
# Experiment: blocks human ST2 binding to IL-33, primary screen, biochemical, AlphaLISA (AID 1259354)
# Conditions: AlphaLISA ST2-Fc/biotin-IL-33 interaction, 1 h; at 17 µM, stronger effect = higher value
row,SMILES,inhibition
1,CC(=O)N1c2ccccc2NC2=C(C(=O)CC(c3ccccc3F)C2)C1c1ccccc1 (centres undefined),inactive
2,O=C(Cn1nc(-c2ccccc2)ccc1=O)NCc1ccccc1Cl,inconclusive: 18%
3,COc1ccc([C@@H](C)NC(=O)[C@@H]2C[C@H](NC(=O)c3cccc(C)c3)CN2C)cc1,inconclusive: 13%
4,CC1(c2ccccc2)OC(=O)C(=Cc2c[nH]c3ccccc23)C(=O)O1 (centres undefined),inconclusive: 22%
5,OCc1ccc(CN2CC[C@H](c3nnc(-c4ccccc4F)o3)C2)o1,inconclusive: 15%
6,Cn1c2c(c3cc(F)ccc31)CCCC2=O,inactive
7,CCOc1ccc(N2C(=O)NC(=O)C(=S(C)C)C2=O)cc1,inactive
8,O=C(NCCc1ccc(F)cc1)c1ccc(Cl)cc1[N+](=O)[O-],inconclusive: 15%
9,O=[N+]([O-])c1ccc(CN2CCCCCCC2)cc1,inconclusive: 11%
10,CSc1cccc(NS(=O)(=O)c2c(C)[nH]c(=O)[nH]c2=O)c1,inactive
11,CCOc1cc(/C=C2/C(=O)N(c3ccc(C)c(C)c3)N=C2C)cc(I)c1O,inconclusive: 24%
12,CSc1cccc(-n2cc(-c3ccc4c(c3)OCO4)[nH]c2=O)c1,inconclusive: 12%
13,Cc1cc(N2CCCCC2)nc2ccc(NC(=O)CCC(=O)N3CCOCC3)cc12,inconclusive: 14%
14,Cc1cc(C)c2c(=O)[nH]c(SCC(=O)c3ccc(Cl)cc3)nc2n1,inconclusive: 14%
15,Fc1cccc(-c2nnc3n2N=C(c2cccs2)CS3)c1,inconclusive: 21%
16,CCc1ccc(NC(=O)CSc2nc3c(c(=O)n2-c2ccccc2OC)SCC3)cc1,inconclusive: 16%
17,c1ccc(-c2nnc(SCC3CCOCO3)n2-c2ccccc2)cc1 (centres undefined),active: 31%
18,N#CC1(C#N)C2CCCCC23OC(=N)C1(C#N)C(c1ccncc1)O3 (centres undefined),inconclusive: 13%
19,CN(C)c1ccc(Nc2c([N+](=O)[O-])cc([N+](=O)[O-])c3cccnc23)cc1,active: 95%
20,Oc1ccccc1CNc1cccc(C(F)(F)F)c1,inconclusive: 11%
21,Cc1ccc(S(=O)(=O)CC(SC#N)c2ccccc2)cc1 (centres undefined),inconclusive: 21%
22,COc1ccc(C(C[N+](=O)[O-])Sc2ccccc2N)cc1 (centres undefined),inconclusive: 12%
23,O=C(CN1C(=O)CCC1=O)Nc1nc2c(s1)CCc1ccccc1-2,inconclusive: 13%

# A second format for part of the listing above:
row | SMILES | inhibition
7 | CCOc1ccc(N2C(=O)NC(=O)C(=S(C)C)C2=O)cc1 | inactive
8 | O=C(NCCc1ccc(F)cc1)c1ccc(Cl)cc1[N+](=O)[O-] | inconclusive: 15%

# More compounds.

row,SMILES,inhibition
1,Clc1ccc(-c2ncnn2-c2ccc(Br)cc2)cc1,active: 33% and inconclusive: 19%
2,Oc1c(C(Nc2ccccn2)c2ccc(OC(F)F)cc2)ccc2cccnc12 (centres undefined),inconclusive: 22%
3,CCCCC(=O)Nc1ccc(Nc2nc(C)cc(Nc3ccccc3)n2)cc1,inconclusive: 19%
4,Cc1ccccc1N1CCN(C2CCCN(C(=O)CCOc3ccccc3)C2)CC1 (centres undefined),inactive
5,NC[C@@H]1O[C@H](C23CC4CC(CC(C4)C2)C3)Cc2c1ccc(O)c2O,inconclusive: 21%
6,CC(C)Oc1cc(N[C@H]2CCCC[C@@H]2O)nc(N)n1,inconclusive: 17%
7,CC1CCCCC1NC(=O)C1(O)c2ccccc2NC(=O)N1c1ccc(Cl)c(Cl)c1 (centres undefined),inactive
8,CCc1c(C#N)c(N)nc(SCC(=O)c2ccc(C)cc2)c1C#N,inconclusive: 14%
9,CN(C(=O)c1ccc2ncsc2c1)C1CCCc2ccccc21 (centres undefined),inconclusive: 20%
10,COCc1cc(C)nc(SCc2ccc(Cl)cc2)c1C#N,inconclusive: 11%
11,O=C(CCC(=O)Nc1ccc(F)c(F)c1)Nc1ccc(F)c(F)c1,inconclusive: 14%
12,COc1ccc(NC(=O)N2C[C@@H]3C[C@H](C2)c2ccc(NC(=O)Nc4cccc(C#N)c4)c(=O)n2C3)cc1,inconclusive: 17%
13,COc1ccc(N2CCN(C(=O)CN(c3cccc(Cl)c3C)S(C)(=O)=O)CC2)cc1,inactive
14,CCOc1ccc(N2C(=O)S/C(=C/c3ccccc3OC)C2=O)cc1,inconclusive: 21%
15,COc1ccc(N2CCN(C(=O)C3c4ccccc4C(=O)N4CCc5ccccc5C34)CC2)cc1 (centres undefined),inconclusive: 16%
16,COc1ccc2cc(C3CN(c4cc(OC)ncn4)CCO3)ccc2c1 (centres undefined),inconclusive: 16%
17,CC(C)CN1CCCN(c2nccc(-c3cnn(-c4ccccc4)c3)n2)CC1,inconclusive: 11%
18,CCO[C@H]1COC[C@@H]1NC1CCN(Cc2ccccn2)CC1,inconclusive: 20%
19,CCCCN(CC)S(=O)(=O)c1ccc(NC(C)=O)cc1,inactive
20,CC(=O)c1c(N)nc(C)nc1-c1ccccc1,inconclusive: 19%
21,Cc1ccc(F)cc1-c1ccc(N)nc1,inconclusive: 17%
22,COCC1(C(=O)NCc2cccnc2N2CCCCCCC2)CCC1,inconclusive: 15%
23,CC(C)CCNC(=O)C1c2c(n(C)c3ccccc23)SCC(=O)N1c1ccc2c(c1)OCCO2 (centres undefined),inactive

row,SMILES,inhibition
1,COc1cc2c(cc1OC)CN(Cc1ccccc1F)CC2,inactive
2,CCOc1ccccc1OCCOc1ccc([N+](=O)[O-])cc1Cl,inconclusive: 15%
3,Cc1ccc(NC(=O)CN2N=NC3C(=O)N(c4ccc(F)cc4F)C(=O)C32)cc1 (centres undefined),inactive
4,COC[C@H]1CCCN1C(=O)CC[C@H]1CNC(=O)[C@@H]2[C@@H](CCN2Cc2ccc(O)cc2)N1C,inconclusive: 27%
5,CCN(CC)CCCNC(=O)c1cc(-c2ccc(Br)cc2)on1,inconclusive: 11%
6,O=C(Nc1ccccc1-c1nc2ccccc2s1)c1cccc([N+](=O)[O-])c1,inconclusive: 26%
7,C=CCN1C(=O)c2ccccc2Sc2ccc(C(=O)NC3CC3)cc21,inactive
8,CC(C)c1ccc(OCC(=O)O/N=C(/N)c2ccccn2)c(Br)c1,inconclusive: 21%
9,Cc1ccc(N=Cc2cc3ccccc3[nH]c2=O)cc1,inconclusive: 16%
10,COc1ccc(C2CC(C(F)(F)F)n3nc(C(=O)N4CCOCC4)c(Cl)c3N2)cc1OC (centres undefined),inactive
11,CCc1[nH]c2c(CNC(=O)CN3C(=O)CNC3=O)cc(C)cc2c1C,inconclusive: 19%
12,C[C@@H]1O[C@@H](O[C@H]2[C@H](O[C@H]3[C@H](O[C@H]4CC[C@@]5(C)C(CC[C@]6(C)C5CC=C5[C@@H]7CC(C)(C)C[C@@H](O)[C@]7(C)CC[C@]56C)C4(C)C)O[C@H](C(=O)O)[C@@H](O)[C@@H]3O)O[C@H](C(=O)O)[C@H](O)[C@@H]2O)[C@H](O)[C@H](O)[C@H]1O (some centres undefined),inconclusive: 12%
13,O=[N+]([O-])c1ccc(N2CCN(c3nc(N4CCN(CCO)CC4)nc4ccccc34)CC2)cc1,active: 31%
14,CN(C)CCNC(=O)C1CC(=O)N(C2CCCCCC2)C1 (centres undefined),inactive
15,CC(c1ccc(-c2ccc(C(=O)N3CCCC3)o2)cc1)N1CCOCC1 (centres undefined),inconclusive: 17%
16,c1ccc2c(c1)CCN(Cc1ccc3c(c1)OCO3)C2,inactive
17,CCOC(=O)N1CCC(NC(=O)C2CC23CCN(C(=O)c2cccc4ccccc24)CC3)CC1 (centres undefined),inconclusive: 13%
18,COc1cc(OC)c(/C=C2\SC(=Nc3ccc(C(=O)O)cc3)N(C)C2=O)cc1Br,inconclusive: 15%
19,COc1cccc(Cl)c1-c1cc(C)cnc1N,inconclusive: 11%
20,COc1nc2nonc2nc1Nc1ccc(C)cc1,inconclusive: 17%
21,COc1ccc(Cl)cc1NC(=O)c1coc(=O)c2ccccc12,inactive
22,O=C(C1CC1)N1CCc2cc(S(=O)(=O)N(CCO)Cc3ccccc3)ccc21,inconclusive: 17%
23,O=C(C[C@@H]1O[C@H](CNC(=O)c2ccccc2)[C@@H](O)[C@H]1O)NCc1ccc(F)cc1,inconclusive: 14%

# Rewritten bar-delimited: two of the compounds above
row | SMILES | inhibition
5 | CCN(CC)CCCNC(=O)c1cc(-c2ccc(Br)cc2)on1 | inconclusive: 11%
9 | Cc1ccc(N=Cc2cc3ccccc3[nH]c2=O)cc1 | inconclusive: 16%

# Next part:

row,SMILES,inhibition
1,CCc1ccc(N2C(=O)CC(N3CCN(Cc4ccc5c(c4)OCO5)CC3)C2=O)cc1 (centres undefined),inconclusive: 24%
2,NC(=O)c1ccc(-n2nnnc2SCC(=O)N2CCOCC2)cc1,inconclusive: 17%
3,O=C1c2ccccc2C(=O)C1c1ccncc1,active: 99%
4,COc1cccc(C(=O)NC2CC(=O)N(c3cccc(F)c3)C2)c1OC (centres undefined),inconclusive: 20%
5,COc1ccc(CN2CCCCC2)c(OC)c1C,inactive
6,Cc1cc(N(C)C)nc(Nc2ccc(NC(=O)c3c(F)cccc3F)cc2)n1,inactive
7,Cc1cc(C)n(CCCNS(=O)(=O)NCc2ccccc2)n1,inconclusive: 14%
8,C=CCn1cc(C(=O)NCc2ccc(C)cc2)c(=O)c2cc(S(=O)(=O)N(CC)CC)ccc21,inconclusive: 10%
9,CC(C)(C)n1cnc2cc(NCc3cccc(Br)c3)ccc21,inconclusive: 14%
10,CCOC(=O)c1oc2ccccc2c1NC(=O)COc1ccccc1,inactive
11,COC(=O)C1=C(C)NC(C)=C(C(=O)OC(C)(C)CN(C)CCC(c2ccccc2)c2ccccc2)C1c1cccc([N+](=O)[O-])c1 (centres undefined),inconclusive: 16%
12,CC1=NN(c2nc(-c3ccc(Cl)cc3)cs2)C(=O)/C1=C/c1ccc(N(C)C)cc1,inconclusive: 12%
13,COc1ccccc1-n1cc(C(=O)N(C)Cc2nncn2C(C)C)cn1,inactive
14,O=C(NCc1ccccn1)C1CCN(Cc2cc3n(n2)CCCNC3)CC1,inconclusive: 23%
15,Cn1cnnc1SCCn1ccnc1-c1ccc(-c2ccn[nH]2)o1,inconclusive: 17%
16,CCN(CC1CCN(CCc2ccccc2C)CC1)C(=O)c1cnc2ccccn2c1=O,inconclusive: 12%
17,COCC1CCCCN1C(=O)c1coc(COc2ccccc2)n1 (centres undefined),inactive
18,O=S(=O)(Cc1noc([C@@H]2C[C@@H](O)CN2Cc2ncc[nH]2)n1)c1ccc(F)cc1,inconclusive: 23%
19,CO[C@H]1CN(C(=O)c2ccc(-n3cnnc3)cc2Cl)CC[C@H]1N,inconclusive: 15%
20,O=C1NC[C@@H](CCC(=O)N2CCOCC2)N2C[C@@H](NC(=S)NCCN3CCOCC3)C[C@@H]12,inconclusive: 15%
